Data from PMC9046089, “CCNE1 amplification is synthetic lethal with PKMYT1 kinase inhibition” (Nature, 2022).
Values joined by “and” are separate entries in the source; they are usually repeats but may differ in a detail not shown here. Equal entries are not always repeated. This continues a long series; more values of the same kind are listed elsewhere.

Columns and labels:
Format in all cases: in vivo, mouse
OVCAR3 xenografts = assay: Cell line-derived xenograft, tumour growth
Description: (§1) HCC1569, OVCAR3 and SUM149PT cells were implanted at 5 × 10^6 cells per mouse into the right flanks of female CB17-SCID, SCID-beige and NOD-SCID mice respectively (5–7 weeks old; Charles River), in 1:1 Matrigel:medium (Matrigel Corning, cat. no. CB35248).
(§2) Gemcitabine was administered once weekly intraperitoneally in saline. Animals were monitored for tumour volume, clinical signs and body weight three times per week. Tumour volume was measured using a digital calliper and calculated using the formula 0.52 × L × W^2, where L is length and W is width. Response to treatment was evaluated for tumour growth inhibition (% TGI). […] TV is tumour volume and subscripts indicate treatment group and time of sampling. According to NIACC and IACUC approved animal protocols, mice were euthanized as soon as their tumour volume exceeded 2,000 mm^3. Change in body weight (BW) was calculated using the formula: %BW change = (BWlast − BWday0/BWday0) × 100. BW change was calculated based on individual body weight changes relative to day 0. Statistical significance relative to vehicle control or other test groups was established by one-way ANOVA followed by Fisher’s least significant difference test for multiple groups and unpaired t-test for two group comparisons (GraphPad Prism v9.0). Investigators were not blinded during data collection and analysis.

SUM149PT xenografts = assay: Cell line-derived xenograft, tumour growth; details: individual animals
Description: as §1, §2

[1] = Body weight change of tumour-bearing mice
Description: as §2

Cc1cc2c(C(N)=O)c(N)n(-c3c(C)ccc(O)c3C)c2nc1C [RP-6306]
tumour volume, individual mice (OVCAR3 xenografts; 1mg/kg (BID), day 0): 92.6471 and 90.2498 and 109.339 and 149.891 and 68.8608 and 81.9745 and 123.088
tumour volume, individual mice (OVCAR3 xenografts; 1mg/kg (BID), day 3): 125.358 and 104.379 and 172.798 and 154.176 and 125.714 and 98.4324 and 124.276
tumour volume, individual mice (OVCAR3 xenografts; 1mg/kg (BID), day 7): 200.621 and 143.492 and 193.492 and 211.953 and 203.152 and 155.672 and 208.83
tumour volume, individual mice (OVCAR3 xenografts; 1mg/kg (BID), day 9): 223.137 and 154.086 and 337.43 and 251.635 and 193.648 and 180.53 and 218.005
tumour volume, individual mice (OVCAR3 xenografts; 1mg/kg (BID), day 11): 194.265 and 143.752 and 231.251 and 338.458 and 262.902 and 236.002 and 328.889
tumour volume, individual mice (OVCAR3 xenografts; 1mg/kg (BID), day 21): 775.036
tumour volume, individual mice (OVCAR3 xenografts; 1mg/kg (BID), day 23): 503.911 and 523.026 and 480.084 and 624.485 and 407.476 and 392.541 and 615.788
tumour volume, individual mice (OVCAR3 xenografts; 7.5mg/kg (BID), day 0): 129.177 and 108.667 and 77.2746 and 81.8339 and 84.4147 and 69.6566 and 93.7673
tumour volume, individual mice (OVCAR3 xenografts; 7.5mg/kg (BID), day 3): 161.59 and 126.605 and 133.423 and 122.534 and 156.538 and 102.529 and 113.571
tumour volume, individual mice (OVCAR3 xenografts; 7.5mg/kg (BID), day 7): 207.751 and 177.648 and 163.58 and 169.756 and 150.25 and 85.9794 and 170.047
tumour volume, individual mice (OVCAR3 xenografts; 7.5mg/kg (BID), day 9): 214.255 and 151.142 and 171.225 and 165.402 and 177.587 and 120.432 and 155.548
tumour volume, individual mice (OVCAR3 xenografts; 7.5mg/kg (BID), day 11): 215.875 and 313.281 and 187.666 and 153.934 and 188.63 and 107.074 and 161.675
tumour volume, individual mice (OVCAR3 xenografts; 7.5mg/kg (BID), day 21): 246.981 and 647.593 and 223.015 and 129.565 and 320.873 and 169.097 and 210.974
tumour volume, individual mice (OVCAR3 xenografts; 7.5mg/kg (BID), day 23): 291.041 and 499.105 and 191.798 and 199.034 and 384.082 and 149.022 and 232.5
tumour volume, individual mice (OVCAR3 xenografts; 20mg/kg (BID), day 0): 81.7058 and 97.0092 and 112.17 and 169.068 and 90.1647 and 98.1431 and 86.3574 and 66.9197
tumour volume, individual mice (OVCAR3 xenografts; 20mg/kg (BID), day 3): 140.722 and 115.997 and 158.945 and 302.152 and 97.2429 and 116.597 and 175.702 and 110.491
tumour volume, individual mice (OVCAR3 xenografts; 20mg/kg (BID), day 7): 177.544 and 135.884 and 217.924 and 207.405 and 169.547 and 223.631 and 201.135 and 82.0663
tumour volume, individual mice (OVCAR3 xenografts; 20mg/kg (BID), day 9): 138.767 and 157.124 and 198.336 and 279.028 and 183.519 and 128.599 and 206.388 and 181.897
tumour volume, individual mice (OVCAR3 xenografts; 20mg/kg (BID), day 11): 157.401 and 103.731 and 171.317 and 358.522 and 193.538 and 121.481 and 259.637 and 84.7721
tumour volume, individual mice (OVCAR3 xenografts; 20mg/kg (BID), day 21): 169.574 and 153.235 and 202.602 and 547.272 and 204.706 and 150.482 and 155.016 and 59.9919
tumour volume, individual mice (OVCAR3 xenografts; 20mg/kg (BID), day 23): 205.906 and 201.206 and 240.027 and 326.226 and 250.311 and 76.6568 and 268.223 and 192.047
SUM149PT tumor volume (SUM149PT xenografts; 7.5mg/kg (BID), time 11): 358.158 mm3 and 663.416 mm3 and 546.465 mm3 and 308.22 mm3
SUM149PT tumor volume (SUM149PT xenografts; 7.5mg/kg (BID), time 13): 295.4 mm3 and 663.261 mm3 and 574.941 mm3 and 343.235 mm3 and 525.236 mm3 and 880.403 mm3 and 780.601 mm3 and 208.875 mm3
SUM149PT tumor volume (SUM149PT xenografts; 20mg/kg (BID), time 11): 410.171 mm3 and 257.301 mm3 and 441.769 mm3 and 334.466 mm3 and 393.657 mm3 and 419.579 mm3 and 459.601 mm3 and 325.008 mm3
SUM149PT tumor volume (SUM149PT xenografts; 20mg/kg (BID), time 13): 555.779 mm3 and 249.046 mm3 and 462.32 mm3 and 445.05 mm3 and 595.457 mm3 and 428.012 mm3 and 538.727 mm3 and 315.395 mm3
Change in body weight (%) HCC1569 ([1]; HCC1569, RP-6306 10mg/kg BIDx21 PO, time 0, individual mice): 0%
Change in body weight (%) HCC1569 ([1]; HCC1569, RP-6306 10mg/kg BIDx21 PO, time 3, individual mice, 10 mg/kg): 2.762% and 7.463% and -0.5291% and 0% and 1.026% and 1.604% and 1.02%
Change in body weight (%) HCC1569 ([1]; HCC1569, RP-6306 10mg/kg BIDx21 PO, time 7, individual mice, 10 mg/kg): -0.5525% and 8.955% and 5.291% and -1.485% and -1.026% and 4.813% and 1.531%
Change in body weight (%) HCC1569 ([1]; HCC1569, RP-6306 10mg/kg BIDx21 PO, time 9, individual mice, 10 mg/kg): 1.105% and 5.473% and 0.5291% and -6.436% and -3.077% and 6.417% and -2.551%
Change in body weight (%) HCC1569 ([1]; HCC1569, RP-6306 10mg/kg BIDx21 PO, time 11, individual mice, 10 mg/kg): -1.105% and 9.453% and 2.6455% and -1.9802% and -4.615% and 0% and -1.531%
Change in body weight (%) HCC1569 ([1]; HCC1569, RP-6306 10mg/kg BIDx21 PO, time 14, individual mice, 10 mg/kg): -3.8674% and 10.4478% and 1.0582% and -2.9703% and -9.231% and 1.604% and -1.531%
Change in body weight (%) HCC1569 ([1]; HCC1569, RP-6306 10mg/kg BIDx21 PO, time 16, individual mice, 10 mg/kg): -4.972% and 6.965% and 1.0582% and -4.9505% and -8.205% and 1.07% and -1.02%
Change in body weight (%) HCC1569 ([1]; HCC1569, RP-6306 10mg/kg BIDx21 PO, time 18, individual mice, 10 mg/kg): -4.42% and 6.965% and 3.7037% and -2.9703% and -9.231% and 0.5348% and -3.061%
Change in body weight (%) HCC1569 ([1]; HCC1569, RP-6306 10mg/kg BIDx21 PO, time 21, individual mice, 10 mg/kg): -0.5525% and 7.463% and 4.7619% and -1.485% and -8.205% and 1.604% and 0.5102%
Change in body weight (%) HCC1569 ([1]; HCC1569, RP-6306 10mg/kg BIDx21 PO, time 23, individual mice, 10 mg/kg): -1.657% and 3.9801% and 0% and 1.485% and -4.103% and 2.139% and 0.5102%
Change in body weight (%) HCC1569 ([1]; HCC1569 tumour-bearing mice, 1mg/kg BIDx28, time 0, individual animals): 0%
Change in body weight (%) HCC1569 ([1]; HCC1569 tumour-bearing mice, 1mg/kg BIDx28, time 3, individual animals, 1 mg/kg): -0.9901% and 0.5076% and 0.5291% and -3.382% and -1.0101% and -2.041% and -4.972%
Change in body weight (%) HCC1569 ([1]; HCC1569 tumour-bearing mice, 1mg/kg BIDx28, time 7, individual animals, 1 mg/kg): 2.9703% and 3.046% and 2.1164% and 2.899% and 1.0101% and 2.041% and -5.525%
Change in body weight (%) HCC1569 ([1]; HCC1569 tumour-bearing mice, 1mg/kg BIDx28, time 9, individual animals, 1 mg/kg): 0% and 1.015% and 1.5873% and -1.449% and -2.525% and -7.143% and -11.0497%
Change in body weight (%) HCC1569 ([1]; HCC1569 tumour-bearing mice, 1mg/kg BIDx28, time 11, individual animals, 1 mg/kg): 0% and 1.523% and 2.6455% and 0.4831% and -1.0101% and -1.531% and -9.945%
Change in body weight (%) HCC1569 ([1]; HCC1569 tumour-bearing mice, 1mg/kg BIDx28, time 25, individual animals, 1 mg/kg): 5.446% and 5.584% and 0.5291% and -0.4831% and 3.535% and 8.673% and -7.182%
Change in body weight (%) HCC1569 ([1]; HCC1569 tumour-bearing mice, 1mg/kg BIDx28, time 27, individual animals, 1 mg/kg): 7.921% and 7.1066% and 7.407% and -1.932% and 6.061% and 9.694% and -5.525%
Change in body weight (%) HCC1569 ([1]; HCC1569 tumour-bearing mice, 15mg/kg BIDx28, time 0, individual animals): 0%
Change in body weight (%) HCC1569 ([1]; HCC1569 tumour-bearing mice, 15mg/kg BIDx28, time 3, individual animals, 15 mg/kg): -5.208% and -4.455% and -3.448% and -0.9804% and -0.9009% and -3.571%
Change in body weight (%) HCC1569 ([1]; HCC1569 tumour-bearing mice, 15mg/kg BIDx28, time 7, individual animals, 15 mg/kg): -0.5208% and -5.446% and 0% and 1.961% and 2.7027% and -1.02%
Change in body weight (%) HCC1569 ([1]; HCC1569 tumour-bearing mice, 15mg/kg BIDx28, time 9, individual animals, 15 mg/kg): -1.042% and -4.9505% and 0% (2×) and 0.4505% and -1.531%
Change in body weight (%) HCC1569 ([1]; HCC1569 tumour-bearing mice, 15mg/kg BIDx28, time 11, individual animals, 15 mg/kg): -1.042% and -4.9505% and -0.5747% and 0% and 0.4505% and -2.041%
Change in body weight (%) HCC1569 ([1]; HCC1569 tumour-bearing mice, 15mg/kg BIDx28, time 23, individual animals, 15 mg/kg): -14.3564% and -7.471% and -3.431% and -1.351% and -6.122%
Change in body weight (%) HCC1569 ([1]; HCC1569 tumour-bearing mice, 15mg/kg BIDx28, time 25, individual animals, 15 mg/kg): -12.5% and -16.8317% and 2.299% and 2.451% and 1.351% and 2.041%
Change in body weight (%) HCC1569 ([1]; HCC1569 tumour-bearing mice, 15mg/kg BIDx28, time 27, individual animals, 15 mg/kg): -10.4167% and -19.3069% and 0.5747% and 1.961% and 0.4505% and 2.551%
Change in body weight (%) OVCAR3 ([1]; OVCAR3, RP-6306 10mg/kg BIDx21 PO, day 0, individual mice): 0%
